B1: L1P8D4: FABP probe, substitutions Y14M L72M Y117A vs SEQ ID NO: 2 (protein, listed as Rattus norvegicus)
chain: AFDGTWKVDRNENMEKFMEKMGINVVKRKLGAHDNLKLTITQEGNKFTVKESSNFRNIDVVFELGVDFAYSMADGTELTGTWTMEGNKLVGKFKRVDNGKELIAVREISGNELIQTATYEGVEAKRIFKKE
modifications: PEPTIDE (1)...(131) wild-type rat intestinal fatty acid binding protein
B2: L1P8H2: FABP probe, substitutions Y14M L38M L72W vs SEQ ID NO: 2 (protein, listed as Rattus norvegicus)
chain: B1 chain with L38M, M72W, A117Y
modifications: PEPTIDE (1)...(131) wild-type rat intestinal fatty acid binding protein
B3: L1P17A1: FABP probe, substitutions Y14I L72W vs SEQ ID NO: 2 (protein, listed as Rattus norvegicus)
chain: B1 chain with M14I, M72W, A117Y
modifications: PEPTIDE (1)...(131) wild-type rat intestinal fatty acid binding protein
B4: L1P1C3: FABP probe, substitutions Y14M L72W vs SEQ ID NO: 2 (protein, listed as Rattus norvegicus)
chain: B1 chain with M72W, A117Y
modifications: PEPTIDE (1)...(131) wild-type rat intestinal fatty acid binding protein
B5: L1P7H4: FABP probe, substitutions Y14I L38M L72W vs SEQ ID NO: 2 (protein, listed as Rattus norvegicus)
chain: B1 chain with M14I, L38M, M72W, A117Y
modifications: PEPTIDE (1)...(131) wild-type rat intestinal fatty acid binding protein
B6: L2P21G3: FABP probe, substitutions M18I G31M F55M vs SEQ ID NO: 2 (protein, listed as Rattus norvegicus)
chain: B1 chain with M14Y, M18I, G31M, F55M, M72L, A117Y
modifications: PEPTIDE (1)...(131) wild-type rat intestinal fatty acid binding protein
B7: L2P22H10: FABP probe, substitutions M18I F55G A73M vs SEQ ID NO: 2 (protein, listed as Rattus norvegicus)
chain: B1 chain with M14Y, M18I, F55G, M72L, A73M, A117Y
modifications: PEPTIDE (1)...(131) wild-type rat intestinal fatty acid binding protein
B8: L2P22E6: FABP probe, substitutions M18V G31A F55I A73W vs SEQ ID NO: 2 (protein, listed as Rattus norvegicus)
chain: B1 chain with M14Y, M18V, G31A, F55I, M72L, A73W, A117Y
modifications: PEPTIDE (1)...(131) wild-type rat intestinal fatty acid binding protein
B9: L2P8A6: FABP probe, substitutions M18I G31V F55V A73V vs SEQ ID NO: 2 (protein, listed as Rattus norvegicus)
chain: B1 chain with M14Y, M18I, G31V, F55V, M72L, A73V, A117Y
modifications: PEPTIDE (1)...(131) wild-type rat intestinal fatty acid binding protein
B10: L2P18H12: FABP probe, substitutions M18I G31V A73G vs SEQ ID NO: 2 (protein, listed as Rattus norvegicus)
chain: B1 chain with M14Y, M18I, G31V, M72L, A73G, A117Y
modifications: PEPTIDE (1)...(131) wild-type rat intestinal fatty acid binding protein
B11: L2P8F11: FABP probe, substitution A73I vs SEQ ID NO: 2 (protein, listed as Rattus norvegicus)
chain: B1 chain with M14Y, M72L, A73I, A117Y
modifications: PEPTIDE (1)...(131) wild-type rat intestinal fatty acid binding protein
B12: L2P1E6: FABP probe, substitutions M18L A73L vs SEQ ID NO: 2 (protein, listed as Rattus norvegicus)
chain: B1 chain with M14Y, M18L, M72L, A73L, A117Y
modifications: PEPTIDE (1)...(131) wild-type rat intestinal fatty acid binding protein
B13: L2P7F4: FABP probe, substitutions M18V G31V A73I vs SEQ ID NO: 2 (protein, listed as Rattus norvegicus)
chain: B1 chain with M14Y, M18V, G31V, M72L, A73I, A117Y
modifications: PEPTIDE (1)...(131) wild-type rat intestinal fatty acid binding protein
B14: L2P22G6: FABP probe, substitutions M18I G31Y A73G vs SEQ ID NO: 2 (protein, listed as Rattus norvegicus)
chain: B1 chain with M14Y, M18I, G31Y, M72L, A73G, A117Y
modifications: PEPTIDE (1)...(131) wild-type rat intestinal fatty acid binding protein
B15: L2P23A4: FABP probe, substitutions M18V G31I F55L A73V vs SEQ ID NO: 2 (protein, listed as Rattus norvegicus)
chain: B1 chain with M14Y, M18V, G31I, F55L, M72L, A73V, A117Y
modifications: PEPTIDE (1)...(131) wild-type rat intestinal fatty acid binding protein
B16: L2P23G7: FABP probe, substitutions M18V G31F F55L vs SEQ ID NO: 2 (protein, listed as Rattus norvegicus)
chain: B1 chain with M14Y, M18V, G31F, F55L, M72L, A117Y
modifications: PEPTIDE (1)...(131) wild-type rat intestinal fatty acid binding protein
B17: L2P8B8: FABP probe, substitution A73F vs SEQ ID NO: 2 (protein, listed as Rattus norvegicus)
chain: B1 chain with M14Y, M72L, A73F, A117Y
modifications: PEPTIDE (1)...(131) wild-type rat intestinal fatty acid binding protein
B18: L2P17H10: FABP probe, substitutions M18G G31F A73L vs SEQ ID NO: 2 (protein, listed as Rattus norvegicus)
chain: B1 chain with M14Y, M18G, G31F, M72L, A73L, A117Y
modifications: PEPTIDE (1)...(131) wild-type rat intestinal fatty acid binding protein
B19: L2P4C5: FABP probe, substitutions M18I G31Y vs SEQ ID NO: 2 (protein, listed as Rattus norvegicus)
chain: B1 chain with M14Y, M18I, G31Y, M72L, A117Y
modifications: PEPTIDE (1)...(131) wild-type rat intestinal fatty acid binding protein
B20: L2P12C5: FABP probe, substitutions M18I G31I F55M A73I vs SEQ ID NO: 2 (protein, listed as Rattus norvegicus)
chain: B1 chain with M14Y, M18I, G31I, F55M, M72L, A73I, A117Y
modifications: PEPTIDE (1)...(131) wild-type rat intestinal fatty acid binding protein
B21: L2P8A5: FABP probe, substitutions M18V G31A F55W A73W vs SEQ ID NO: 2 (protein, listed as Rattus norvegicus)
chain: B1 chain with M14Y, M18V, G31A, F55W, M72L, A73W, A117Y
modifications: PEPTIDE (1)...(131) wild-type rat intestinal fatty acid binding protein
B22: L2P16A3: FABP probe, substitutions M18I G31L A73G vs SEQ ID NO: 2 (protein, listed as Rattus norvegicus)
chain: B1 chain with M14Y, M18I, G31L, M72L, A73G, A117Y
modifications: PEPTIDE (1)...(131) wild-type rat intestinal fatty acid binding protein
B23: L2P11B4: FABP probe, substitutions M18V G31A A73W vs SEQ ID NO: 2 (protein, listed as Rattus norvegicus)
chain: B1 chain with M14Y, M18V, G31A, M72L, A73W, A117Y
modifications: PEPTIDE (1)...(131) wild-type rat intestinal fatty acid binding protein
B24: L2P9E12: FABP probe, substitutions M18L F55L A73I vs SEQ ID NO: 2 (protein, listed as Rattus norvegicus)
chain: B1 chain with M14Y, M18L, F55L, M72L, A73I, A117Y
modifications: PEPTIDE (1)...(131) wild-type rat intestinal fatty acid binding protein
B25: L2P12G9: FABP probe, substitutions M18L A73V vs SEQ ID NO: 2 (protein, listed as Rattus norvegicus)
chain: B1 chain with M14Y, M18L, M72L, A73V, A117Y
modifications: PEPTIDE (1)...(131) wild-type rat intestinal fatty acid binding protein
B26: L2P21C1: FABP probe, substitutions M18I G31Y A73V vs SEQ ID NO: 2 (protein, listed as Rattus norvegicus)
chain: B1 chain with M14Y, M18I, G31Y, M72L, A73V, A117Y
modifications: PEPTIDE (1)...(131) wild-type rat intestinal fatty acid binding protein

Positions count from the first letter of the chain named. Numbers in names are those of the source.

The nature of one data set: Baseline fluorescence ratio Ro of probe in absence of analyte. Conditions: Table 4; baseline ratio, no analyte.
For B1, the Ro is listed as 0.31.

For the molecule B2, the Ro was 0.69.

Regarding B3, the Ro came to 0.56.

For the molecule B4, the Ro is on record as 0.60.

With B5, the Ro worked out at 0.62.

Still in this data set, the particulars now being: Table 5; baseline ratio, no analyte.
As for B6, the Ro stood at 0.36.

Turning to B7, the Ro turned out to be 0.30.

Take B8: the Ro came to 0.35.

As to B9, the Ro is reported as 0.36.

As for B10, the Ro is given as 0.36.

Regarding B11, the Ro came to 0.28.

In the case of B12, the Ro turned out to be 0.34.

Regarding B13, the Ro was determined as 0.32.

As to B14, the Ro worked out at 0.30.

As to B15, the Ro is 0.40.

Turning to B16, the Ro amounted to 0.30.

In the case of B17, the Ro is on record as 0.31.

For B18, the Ro is 0.23.

As for B19, the Ro was 0.35.

For B20, the Ro turned out to be 0.39.

B21: the Ro is 0.35.

In the case of B22, the Ro was 0.37.

As to B23, the Ro was 0.35.

As to B24, the Ro came out at 0.38.

Consider B25, for which the Ro was 0.46.

In the case of B26, the Ro stood at 0.36.

The values above are taken from patent US20060257938A1, “Method of screening for drugs that block ligand binding to a lipid binding protein” (priority 2005, published 2006).
